Target: T1, murine integrin α4Y991A β1 of CD11b+ myeloid cells from α4Y991A knockin mice (mouse, UniProt Q00651 41-1039; P09055 21-798)
T1 construct: whole, on cells; It may be mature-chain numbering and may not match the precursor entry; also called α4YA; YA
Test: co-immunoprecipitation with PS/2, immunoblot (FIG. 3d)
Procedure: BM monocytic cells from WT or α4Y991A mice were isolated as described above and treated with either DMEM or TCM for 30 min at 37° C. Cells were rinsed with cold PBS and lysed in Tris-buffered saline containing 1% CHAPS, 20 mM β-glycerophosphate, 1 mM Na₃VO₄, 5 mM NaF, 100 ng/ml microcystin-LR, and protease inhibitor cocktail. Clarified cell lysates were immunoprecipitated as follows: 1 mg total protein was precleared with 10 μl protein G-conjugated Dynabeads (Invitrogen) for 1 hr with rotation. Cleared lysates were incubated with 5 μg of rat anti-α4β1 (PS/2) antibody overnight, followed by adding 25 μl of protein G-conjugated Dynabeads for 3 h with rotation. Beads were washed three times with 1 ml cold PBS containing protease inhibitor cocktail. Protein precipitates were electrophoresed on 10% SDS-PAGE gels and immunoblotted with anti-integrin α4 (C-20, Santa Cruz Biotechnology), anti-talin (Clone TD77, Chemicon) or anti-paxillin (H-114, Santa Cruz Biotechnology) antibodies. Immune complexes were visualized using an enhanced chemiluminescence detection kit (Pierce).
BM cells (comprised of 80% CD11b+Gr1+ cells) from WT or α4Y991A mice were isolated as described above and treated with either DMEM or TCM for 30 min at 37° C. […]

Chains of the proteins cited; added tags and fusions are not shown. A line that says so, or that is headed by a name, gives the form on record, which may keep a tag or linker. Residues count along the entry.
UniProt Q00651, other isoform, or with tags, fused parts or gaps, chain 1 of 2: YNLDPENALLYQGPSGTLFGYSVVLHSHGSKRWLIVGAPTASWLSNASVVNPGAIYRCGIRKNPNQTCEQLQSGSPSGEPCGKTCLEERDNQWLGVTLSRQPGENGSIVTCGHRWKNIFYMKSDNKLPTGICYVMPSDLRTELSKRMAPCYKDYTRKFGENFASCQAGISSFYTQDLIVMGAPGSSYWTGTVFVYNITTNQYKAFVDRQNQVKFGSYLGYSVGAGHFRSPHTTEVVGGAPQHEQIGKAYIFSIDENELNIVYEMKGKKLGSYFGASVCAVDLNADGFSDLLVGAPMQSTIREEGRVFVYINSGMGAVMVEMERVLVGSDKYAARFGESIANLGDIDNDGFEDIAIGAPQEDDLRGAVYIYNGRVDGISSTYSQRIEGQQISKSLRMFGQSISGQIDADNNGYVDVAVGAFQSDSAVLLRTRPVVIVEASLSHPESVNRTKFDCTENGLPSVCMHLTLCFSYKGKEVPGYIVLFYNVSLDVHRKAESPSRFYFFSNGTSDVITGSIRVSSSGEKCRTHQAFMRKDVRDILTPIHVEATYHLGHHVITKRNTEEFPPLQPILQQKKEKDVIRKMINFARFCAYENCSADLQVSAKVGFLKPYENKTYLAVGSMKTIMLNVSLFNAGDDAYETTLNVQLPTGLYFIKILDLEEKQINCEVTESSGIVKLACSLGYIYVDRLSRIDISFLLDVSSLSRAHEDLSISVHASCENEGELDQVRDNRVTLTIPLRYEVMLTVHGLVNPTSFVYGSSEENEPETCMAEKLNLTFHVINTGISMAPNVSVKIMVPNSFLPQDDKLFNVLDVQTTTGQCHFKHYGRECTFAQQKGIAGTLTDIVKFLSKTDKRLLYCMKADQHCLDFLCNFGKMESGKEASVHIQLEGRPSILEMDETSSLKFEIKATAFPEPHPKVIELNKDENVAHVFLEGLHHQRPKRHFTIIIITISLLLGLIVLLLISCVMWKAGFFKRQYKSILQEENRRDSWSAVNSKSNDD
murine integrin α4Y991A β1 of CD11b+ myeloid cells from α4Y991A knockin mice, UniProt P09055, 21-798, chain 2 of 2: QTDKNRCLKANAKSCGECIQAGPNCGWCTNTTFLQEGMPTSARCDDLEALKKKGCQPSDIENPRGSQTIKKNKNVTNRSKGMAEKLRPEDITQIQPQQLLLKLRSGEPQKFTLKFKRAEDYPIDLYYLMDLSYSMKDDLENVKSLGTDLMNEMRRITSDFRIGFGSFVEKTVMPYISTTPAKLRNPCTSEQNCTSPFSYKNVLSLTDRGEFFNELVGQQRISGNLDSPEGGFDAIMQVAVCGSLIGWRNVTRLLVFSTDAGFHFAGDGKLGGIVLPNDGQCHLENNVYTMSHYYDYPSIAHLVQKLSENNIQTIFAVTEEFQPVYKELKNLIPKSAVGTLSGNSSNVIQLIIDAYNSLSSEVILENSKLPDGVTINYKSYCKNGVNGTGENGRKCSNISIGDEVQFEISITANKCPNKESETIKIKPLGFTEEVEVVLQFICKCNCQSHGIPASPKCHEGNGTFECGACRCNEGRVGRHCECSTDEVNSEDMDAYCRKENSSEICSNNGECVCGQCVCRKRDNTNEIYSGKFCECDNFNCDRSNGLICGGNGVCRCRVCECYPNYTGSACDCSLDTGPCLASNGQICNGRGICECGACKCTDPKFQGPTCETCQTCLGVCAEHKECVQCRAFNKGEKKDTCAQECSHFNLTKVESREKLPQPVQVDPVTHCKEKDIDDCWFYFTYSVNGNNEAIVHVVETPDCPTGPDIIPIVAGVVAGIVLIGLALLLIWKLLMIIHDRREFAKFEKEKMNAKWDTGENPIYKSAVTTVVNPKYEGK

binding result: no binding
B1: paxillin (murine, endogenous in bone marrow derived myeloid cells) (other, mouse, UniProt Q8VI36 1-591, looked up)
chain: MDDLDALLADLESTTSHISKRPVFLSEEPPYSYPTGNHTYQEIAVPPPVPPPPSSEALNGTVLDPLDQWQPSGSRYAHQQPPSPLPVYSSSAKNSSASNTQDGVGSLCSRAGEEEHVYSFPNKQKSAEPSPTVMSSSLGSNLSELDRLLLELNAVQHSPPGFPADEAESSPPLPGALSPLYGIPENNTPLGGKAGPLVKEKPKRNGGRGLEDVRPSVESLLDELESSVPSPVPAITVNQGEMSSPQRVTSSQQQTRISASSATRELDELMASLSDFKMQGLEQRVDGERPWAAGWPPSSRQSSPEGQDEGGFMAQGKTGSSSPPGGLSKPGSQLDSMLGSLQSDLNKLGVATVAKGVCGACKKPIAGQVVTAMGKTWHPEHFVCTHCQEEIGSRNFFERDGQPYCEKDYHSLFSPRCYYCNGPILDKVVTALDRTWHPEHFFCAQCGAFFGPEGFHEKDGKAYCRKDYFDMFAPKCGGCARAILENYISALNTLWHPECFVCRECFTPFVNGSFFEHDGQPYCEVHYHERRGSLCSGCQKPITGRCITAMAKKFHPEHFVCAFCLKQLNKGTFKEQNDKPYCQSCFVKLFC
notes: Detected by immunoblot with anti-paxillin H-114

From patent US20100278837A1 (University of California, published 2010)
